Assay results from the supplement of paper PMC10849652.
This is one part of the list.

The chains behind the UniProt entries cited, without tags or fusion partners. Where a name states a change or a piece, a line headed by the entry shows the natural chain unless it says otherwise.
UniProt O60225: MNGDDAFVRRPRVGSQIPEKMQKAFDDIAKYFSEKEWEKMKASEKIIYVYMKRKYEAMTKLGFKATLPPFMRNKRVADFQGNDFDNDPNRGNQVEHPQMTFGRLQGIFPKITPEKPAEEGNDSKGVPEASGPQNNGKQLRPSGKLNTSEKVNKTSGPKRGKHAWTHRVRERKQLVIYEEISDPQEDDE
UniProt Q9UNL2: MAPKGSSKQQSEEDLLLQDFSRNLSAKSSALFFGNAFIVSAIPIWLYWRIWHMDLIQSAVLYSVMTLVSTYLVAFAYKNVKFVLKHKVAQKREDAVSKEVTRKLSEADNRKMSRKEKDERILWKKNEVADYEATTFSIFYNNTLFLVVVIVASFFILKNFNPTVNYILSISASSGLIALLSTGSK
UniProt Q658P3: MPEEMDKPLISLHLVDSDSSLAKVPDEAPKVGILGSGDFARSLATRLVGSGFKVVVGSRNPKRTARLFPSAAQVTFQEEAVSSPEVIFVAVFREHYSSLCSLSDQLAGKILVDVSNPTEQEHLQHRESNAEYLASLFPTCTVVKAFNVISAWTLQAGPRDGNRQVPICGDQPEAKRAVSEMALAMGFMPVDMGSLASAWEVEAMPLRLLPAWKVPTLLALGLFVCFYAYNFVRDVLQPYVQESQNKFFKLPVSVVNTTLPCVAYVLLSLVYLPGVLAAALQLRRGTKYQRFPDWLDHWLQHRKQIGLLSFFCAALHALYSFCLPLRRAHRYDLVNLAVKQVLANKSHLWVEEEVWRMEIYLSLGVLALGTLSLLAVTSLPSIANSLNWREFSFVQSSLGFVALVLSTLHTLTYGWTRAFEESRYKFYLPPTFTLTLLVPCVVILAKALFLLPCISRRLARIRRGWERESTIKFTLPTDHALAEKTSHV
UniProt P37108: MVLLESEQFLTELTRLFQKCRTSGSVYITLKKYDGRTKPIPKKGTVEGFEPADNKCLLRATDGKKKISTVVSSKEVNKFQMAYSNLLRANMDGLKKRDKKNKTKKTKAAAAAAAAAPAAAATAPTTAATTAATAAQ
UniProt Q8N5C6: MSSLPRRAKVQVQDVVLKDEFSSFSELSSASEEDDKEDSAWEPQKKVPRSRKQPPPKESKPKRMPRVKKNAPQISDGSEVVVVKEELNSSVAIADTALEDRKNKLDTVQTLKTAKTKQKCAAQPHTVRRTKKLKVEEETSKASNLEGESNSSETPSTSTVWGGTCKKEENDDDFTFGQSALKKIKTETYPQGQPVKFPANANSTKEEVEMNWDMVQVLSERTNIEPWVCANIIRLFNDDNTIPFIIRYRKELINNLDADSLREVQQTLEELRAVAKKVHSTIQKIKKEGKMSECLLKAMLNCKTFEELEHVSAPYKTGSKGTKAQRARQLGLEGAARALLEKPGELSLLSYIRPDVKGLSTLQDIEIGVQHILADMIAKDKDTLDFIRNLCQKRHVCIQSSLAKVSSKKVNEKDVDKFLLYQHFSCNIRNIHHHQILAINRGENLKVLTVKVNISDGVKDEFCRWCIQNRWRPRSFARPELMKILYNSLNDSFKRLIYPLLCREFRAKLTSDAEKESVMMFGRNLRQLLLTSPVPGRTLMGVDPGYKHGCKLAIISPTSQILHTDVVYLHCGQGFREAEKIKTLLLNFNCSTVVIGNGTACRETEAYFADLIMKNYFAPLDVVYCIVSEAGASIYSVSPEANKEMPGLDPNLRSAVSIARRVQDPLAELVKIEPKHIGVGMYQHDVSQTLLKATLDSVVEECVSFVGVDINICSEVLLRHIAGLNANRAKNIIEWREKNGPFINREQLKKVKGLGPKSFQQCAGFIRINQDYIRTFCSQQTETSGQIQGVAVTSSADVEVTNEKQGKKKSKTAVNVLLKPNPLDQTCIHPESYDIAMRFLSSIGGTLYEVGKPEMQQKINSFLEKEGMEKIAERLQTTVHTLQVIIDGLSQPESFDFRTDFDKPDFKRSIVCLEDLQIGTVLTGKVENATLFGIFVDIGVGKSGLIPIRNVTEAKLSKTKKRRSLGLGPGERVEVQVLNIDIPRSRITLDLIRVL
UniProt Q9NUL3: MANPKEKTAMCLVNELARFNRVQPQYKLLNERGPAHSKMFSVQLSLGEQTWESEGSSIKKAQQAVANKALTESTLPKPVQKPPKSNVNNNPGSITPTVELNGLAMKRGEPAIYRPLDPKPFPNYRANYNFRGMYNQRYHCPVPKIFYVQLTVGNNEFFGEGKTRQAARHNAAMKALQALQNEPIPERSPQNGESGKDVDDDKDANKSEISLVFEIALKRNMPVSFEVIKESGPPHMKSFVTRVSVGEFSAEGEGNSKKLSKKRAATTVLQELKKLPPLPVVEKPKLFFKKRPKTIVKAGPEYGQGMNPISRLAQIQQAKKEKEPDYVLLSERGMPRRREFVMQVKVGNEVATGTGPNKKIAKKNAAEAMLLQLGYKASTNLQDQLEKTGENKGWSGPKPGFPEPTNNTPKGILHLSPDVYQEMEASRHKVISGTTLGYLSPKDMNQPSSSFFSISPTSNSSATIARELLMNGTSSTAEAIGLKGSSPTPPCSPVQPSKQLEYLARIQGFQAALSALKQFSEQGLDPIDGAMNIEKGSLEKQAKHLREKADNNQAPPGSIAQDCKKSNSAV
UniProt O76094: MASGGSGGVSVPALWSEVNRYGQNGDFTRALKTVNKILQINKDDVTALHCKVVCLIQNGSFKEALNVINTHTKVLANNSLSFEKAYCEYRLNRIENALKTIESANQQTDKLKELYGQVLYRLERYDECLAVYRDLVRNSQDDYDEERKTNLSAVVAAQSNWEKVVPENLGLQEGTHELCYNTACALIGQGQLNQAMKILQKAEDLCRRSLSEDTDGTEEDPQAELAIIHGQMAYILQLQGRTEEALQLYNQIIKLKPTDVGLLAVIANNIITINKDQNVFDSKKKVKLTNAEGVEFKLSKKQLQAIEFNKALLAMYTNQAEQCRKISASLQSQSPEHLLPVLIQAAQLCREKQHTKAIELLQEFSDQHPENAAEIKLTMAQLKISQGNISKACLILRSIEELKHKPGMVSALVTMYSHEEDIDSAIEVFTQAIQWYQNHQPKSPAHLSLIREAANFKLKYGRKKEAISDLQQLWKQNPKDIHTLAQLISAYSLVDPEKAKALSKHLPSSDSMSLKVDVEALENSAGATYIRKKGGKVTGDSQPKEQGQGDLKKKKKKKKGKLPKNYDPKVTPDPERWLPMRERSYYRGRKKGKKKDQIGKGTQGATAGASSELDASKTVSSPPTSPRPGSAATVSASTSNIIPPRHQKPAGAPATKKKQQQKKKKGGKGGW
UniProt Q16629: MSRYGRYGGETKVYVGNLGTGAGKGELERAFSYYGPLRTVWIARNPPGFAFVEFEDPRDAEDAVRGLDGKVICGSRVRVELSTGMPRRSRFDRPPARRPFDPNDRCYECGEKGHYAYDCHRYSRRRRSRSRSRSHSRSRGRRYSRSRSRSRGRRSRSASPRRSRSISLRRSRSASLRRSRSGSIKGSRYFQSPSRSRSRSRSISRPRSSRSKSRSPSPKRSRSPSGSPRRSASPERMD

Experiments:
Experiment in all cases: log2 fold change, soluble protein after heating vs DMSO (PISA); higher = thermal stabilisation; K562 lysate, 10 uM; active = over 0.2 and 3.5 SD of the protein, either way, in both replicates (recomputed)
[1] = compound: C1=CC=C(C=C1)[C@H](COC2=CC3=C(C=C2)NC(=O)N3)NC(=O)C4=CC=CN(C4=O)CC5=CC(=C(C=C5)F)F
How it was run: (§1)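 Pellets of K562 cells were dounce-homogenised in PBS pH 7.4 with 1 mM MgCl2, and the crude extract was held at 1 mg/mL protein for a 30 min treatment with 10 μM compound. Aliquots were heated for 3 min over 48°C-58°C and pooled before NP-40 was added to 0.5% at 4°C. The supernatant from 21,000xg for 90 min was quantified by TMTpro 16plex LC-MS/MS with channel sums equalised. Values are reported from duplicates as log-two fold change in thermal stability relative to solvent controls.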

[2] = compound: CC1=C(SC2=C1C(=N[C@H](C3=NN=C(N32)C)CC(=O)N)C4=CC=C(C=C4)Cl)C
How it was run: as §1

[3] = compound: CC1=C2C(=CC=C1)N=C(N(C2=O)C3=CC=CC=C3C)CN4C=NC5=C(N=CN=C54)N
How it was run: as §1

[4] = compound: c1ccc([C@@H]2C[C@H]2NC2CCNCC2)cc1
How it was run: as §1

[5] = compound: Cc1sc2c(c1C)C(c1ccc(Cl)cc1)=N[C@@H](CC(=O)OC(C)(C)C)c1nnc(C)n1-2
How it was run: as §1

Measured: log2 fold change

SSX5 isoform 2 (UniProt O60225)
inactive: [1] 0.022 | [2] 0.03 | [3] -0.157 | [4] -0.253

SSR3 isoform 2 (UniProt Q9UNL2)
inactive: [1] 0.023 | [2] 0.026 | [3] -0.108 | [5] -0.112 | [4] 0.178

STEAP3 isoform 2 (UniProt Q658P3)
inactive: [1] 0.025 | [2] -0.028 | [3] 0.079 | [5] 0.114 | [4] -0.055

SRP14 (UniProt P37108)
inactive: [1] 0.018 | [2] 0.013 | [3] -0.017 | [5] -0.025 | [4] -0.06

SQSTM1 (UniProt Q13501)
inactive: [1] 0.027 | [2] 0.013 | [3] -0.028 | [5] -0.013 | [4] 0.025

SRBD1 (UniProt Q8N5C6)
inactive: [1] 0.038 | [2] 0.001 | [3] -0.114 | [5] 0.027 | [4] -0.043

STAU2 (UniProt Q9NUL3)
inactive: [1] 0.007 | [2] 0.003 | [3] 0.065 | [5] -0.002 | [4] 0.007

Copied from the results shown (2 entries):
SSX5 isoform 2 (UniProt O60225)
inactive: [1] 0.022 | [2] 0.03 | [3] -0.157 | [4] -0.253

SSR3 isoform 2 (UniProt Q9UNL2)
inactive: [1] 0.023 | [2] 0.026 | [3] -0.108 | [5] -0.112 | [4] 0.178

(cont.)

SRP72 (UniProt O76094)
inactive: [1] 0.026 | [2] -0.013 | [3] 0.004 | [5] 0.046 | [4] 0

SRSF7 (UniProt Q16629)
inactive: [1] -0.005 | [2] 0.023 | [3] 0.04 | [5] 0.025 | [4] -0.045
